Experimental data: patent US20210177879A1, “VITAMIN D RECEPTOR AGONIST” (Guanghzou University of Chinese Medicine, priority 2018, published 2021)

Tested on: 1,25(OH)2D3
Assay: Determination of serum 1,25(OH)2D3 content
Format: in vivo, Balb/c mice
Conditions: normal animal+monotropein group vs blank group

O=C(O)C1=CO[C@@H](O[C@@H]2O[C@H](CO)[C@@H](O)[C@H](O)[C@H]2O)[C@H]2[C@@H]1C=C[C@]2(O)CO [monotropein]
serum level of 1,25(OH)2D3 (endogenous VD3) in normal animals: no secretory effect; also recorded: down-regulated in the animals of the blank group, but there was no statistical difference

“Also recorded” adds a separate entry of the source.
